In US20260243776A1, “A METHOD FOR DETECTING PROTEIN TARGETS OF AN ENZYME USING A BIOTIN LIGASE” (Leibniz-Institut für Alternsforschung - …, priority 2022, published 2026):
No constants are given. Whether binding was seen depends on the method and setting. Some entries that bind do so weakly or less than the wild type. Where a sequence is shown, tags or fusion partners need not be part of it.

Target: BRD4 (human) (UniProt O60885)
Test: proximity biotinylation in HEK293T cells treated with the PROTAC KB02-JQ1 (10 uM) and MG132; recruitment induced by the small molecule

B1: PSMA4-miniTurbo-FLAG (protein)
chain: MSRRYDSRTTIFSPEGRLYQVEYAMEAIGHAGTCLGILANDGVLLAAERRNIHKLLDEVFFSEKIYKLNEDMACSVAGITSDANVLTNELRLIAQRYLLQYQEPIPCEQLVTALCDIKQAYTQFGGKRPFGVSLLYIGWDKHYGFQLYQSDPSGNYGGWKATCIGNNSAAAVSMLKQDYKEGEMTLKSALALAIKVLNKTMDVSKLSAEKVEIATLTRENGKTVIRVLKQKEVEQLIKKHEEEEAKAEREKKEKEQKEKDKYPTFLYKVVDSRMASIPLLNAKQILGQLDGGSVAVLPVVDSTNQYLLDRIGELKSGDACIAEYQQAGRGSRGRKWFSPFGANLYLSMFWRLKRGPAAIGLGPVIGIVMAEALRKLGADKVRVKWPNDLYLQDRKLAGILVELAGITGDAAQIVIGAGINVAMRRVEESVVNQGWITLQEAGINLDRNTLAAMLIRELRAALELFEQEGLAPYLSRWEKLDNFINRPVKLIIGDKEIFGISRGIDKQGALLLEQDGVIKPWMGGEISLRSAEKLQDDYKDDDDK
In the case of B1, the binding is reported as “binds”.
